No constants are given. Whether binding was seen depends on the method and setting. Some results given as binding are weak or reduced against the parent protein; the word gives no strength.
What was measured:
[1] = target: T1, Guianensin (Simulium guianense) (UniProt F5GTK6); experiment: SPR; Biacore T200; Guianensin immobilised at 1250 RU on a CM5 chip by amine coupling; binding analysis with all analytes at a single concentration of 100 nM; both purified
T1 sequence: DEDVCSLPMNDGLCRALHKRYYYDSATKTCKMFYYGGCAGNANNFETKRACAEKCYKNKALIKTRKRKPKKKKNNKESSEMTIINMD

[2] = target: T1, Guianensin (Simulium guianense); experiment: SEC; Superdex200 10/30 column; purified recombinant Guianensin runs as a single peak at the expected mass; both purified

B1: human factor XIIa (enzyme, UniProt P00748 20-372; P00748 373-615)
chain 1: IPPWEAPKEHKYKAEEHTVVLTVTGEPCHFPFQYHRQLYHKCTHKGRPGPQPWCATTPNFDQDQRWGYCLEPKKVKDHCSKHSPCQKGGTCVNMPSGPHCLCPQHLTGNHCQKEKCFEPQLLRFFHKNEIWYRTEQAAVARCQCKGPDAHCQRLASQACRTNPCLHGGRCLEVEGHRLCHCPVGYTGAFCDVDTKASCYDGRGLSYRGLARTTLSGAPCQPWASEATYRNVTAEQARNWGLGGHAFCRNPDNDIRPWCFVLNRDRLSWEYCDLAQCQTPTQAAPPTPVSPRLHVPLMPAQPAPPKPQPTTRTPPQSQTPGALPAKREQPPSLTRNGPLSCGQRLRKSLSSMTR
chain 2: VVGGLVALRGAHPYIAALYWGHSFCAGSLIAPCWVLTAAHCLQDRPAPEDLTVVLGQERRNHSCEPCQTLAVRSYRLHEAFSPVSYQHDLALLRLQEDADGSCALLSPYVQPVCLPSGAARPSETTLCQVAGWGHQFEGAEEYASFLQEAQVPFLSLERCSAPDVHGSSILPGMLCAGFLEGGTDACQGDSGGPLVCEDQAAERRLTLQGIISWGSGCGDRNKPGVYTDVAYYLAWIREHTVS
- binding [1]: binds

B2: Guianensin (natural protein)
chain: T1 sequence
notes: precursor of 106 amino acids, predicted signal peptide of 19 amino acids removed; numbers count on: the mature protein; Synthetic gene for the mature peptide, with a 6x-His tag before the stop codon; Monomeric by SEC; also called recombinant Guianensin; mature Guianensin
- binding [2]: no binding

Source: article PMC10353047, “Guianensin, a Simulium guianense salivary protein, has broad anti-hemostatic and anti-inflammatory properties” (Frontiers in Immunology, 2023)
